Source: patent publication US20240083949A1, “CELL PENETRATING PEPTIDE COMPOSITIONS AND METHODS THEREOF” (The Regents of the University of California, priority 2022, published 2024)
At least one compound was matched to its structure with a doubt left.

System: U87 cells
Assay: Endocytosis inhibitors treatment, RB-EPP6 uptake by flow cytometry
Format: cell-based, human
Details: 500 nM RB-EPP6, flow cytometry
Method: Flow cytometry experiments. To measure the RB signal intensity, a NovoCyte flow cytometer (NovoExpress) was used. Quantification of fluorescence intensity in each condition was performed using Novoxpress software. Fifty thousand cells were analyzed for each condition. A green, fluorescent dye used in DNA staining, YOYO was included in all the flow cytometry experiments, serving as a cell live/dead indicator. For the YOYO only group, the cells were treated with trypsin for 5-10 min. After that, cells were fixed in a 1.5 ml centrifuge tube using 4% paraformaldehyde at room temperature for 15 min. Subsequently, fixed cells were washed with PBS once and was permeabilized using 90% cold MeOH on ice for 15 min. Then, cells were incubated with YOYO in phenol-free medium. After half an hour, cells were centrifuged to get rid of YOYO solution and resuspended in fresh phenol-free medium before doing flow cytometry.
Endocytosis inhibitors treatment. U87 Cells were incubated with different endocytosis inhibitors for 1 h respectively. Afterwards, old medium was replaced with medium containing 500 nM RB-EPP 6. After 1 h, a trypsin-EDTA solution (0.05%, Sigma) was added to detach the cells. The cells were collected by centrifugation. Fresh phenol-free medium was added to each condition. Once resuspended, cells were filtered into glass tubes before flow cytometry.

COC[C@H]1OC(=O)c2coc3c2[C@@]1(C)C1=C(C3=O)[C@@H]2CCC(=O)[C@@]2(C)C[C@H]1OC(C)=O [wortmannin]
effect of inhibitor on RB-EPP6 uptake: significantly decreased
